Measured values taken from paper PMC4380498, “Molecular Insights into Frataxin-Mediated Iron Supply for Heme Biosynthesis in Bacillus subtilis” (PLoS ONE, 2015).
These are yes or no findings as the source states them, for the method shown. Tags and fused reporters may be left off the sequences shown. Each block holds one molecule with its values, some of them ahead of it.

Amino acid sequences for entries named in this document (tags omitted). Residues count along the entry.
UniProt P02769, residues 25-607: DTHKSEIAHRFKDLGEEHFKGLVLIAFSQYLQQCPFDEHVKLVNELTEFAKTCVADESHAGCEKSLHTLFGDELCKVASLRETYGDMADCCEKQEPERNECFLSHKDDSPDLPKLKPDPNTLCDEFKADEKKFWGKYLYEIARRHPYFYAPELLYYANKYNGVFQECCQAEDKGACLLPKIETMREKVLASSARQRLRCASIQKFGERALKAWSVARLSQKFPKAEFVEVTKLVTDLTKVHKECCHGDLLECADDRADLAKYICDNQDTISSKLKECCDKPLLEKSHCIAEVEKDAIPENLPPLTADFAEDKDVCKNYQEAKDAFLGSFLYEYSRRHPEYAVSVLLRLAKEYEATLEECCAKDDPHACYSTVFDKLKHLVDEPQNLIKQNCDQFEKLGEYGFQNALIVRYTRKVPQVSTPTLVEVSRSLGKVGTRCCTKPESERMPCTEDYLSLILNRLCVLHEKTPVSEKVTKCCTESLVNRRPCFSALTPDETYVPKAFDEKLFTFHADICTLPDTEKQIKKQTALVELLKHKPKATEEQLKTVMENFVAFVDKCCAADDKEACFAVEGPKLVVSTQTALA

How the values were obtained:
[1] = target: T1, Bacillus subtilis frataxin homologue Fra, recombinant His6-tagged (Bacillus subtilis 168) (UniProt Q797E6); test: pull-down; 2.5 nmol His6-tagged Fra in HEPES buffer A (50 mM HEPES, 300 mM NaCl, pH 8.0) immobilised on a Ni2+-NTA spin column, treated with 50 μL of 100 μM Strep II-tagged HemH (or BSA as control); elution fractions on SDS-PAGE; both purified
T1 sequence: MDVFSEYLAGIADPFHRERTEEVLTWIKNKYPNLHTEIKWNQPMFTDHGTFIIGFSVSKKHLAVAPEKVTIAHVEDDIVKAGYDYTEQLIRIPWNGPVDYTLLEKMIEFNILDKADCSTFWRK

[2] = target: Bacillus subtilis nitric oxide synthase bsNos, recombinant His6-tagged (Bacillus subtilis 168) (UniProt O34453); test: condition: only apo-form (without the heme b co-factor); SEC; separation of the apo- and holo-forms of bsNos by size-exclusion chromatography after affinity purification from the crude protein extract; both purified
[3] = target: T1, Bacillus subtilis frataxin homologue Fra, recombinant His6-tagged (Bacillus subtilis 168); test: condition: only with apo-Fra (not iron-charged); HemH titrated from 42.6 μM to 0.01 μM; MST; as the holo-Fra experiment but with labelled apo-Fra (not iron-charged); HemH titrated; 25°C; both purified

Molecule: bovine serum albumin (from UniProt P02769 25-607)
- binding [1]: no binding

- binding [2]: no binding
B1: Bacillus subtilis nitric oxide synthase bsNos, recombinant His6-tagged (enzyme, Bacillus subtilis 168, UniProt O34453 1-363, looked up)
chain: MEEKEILWNEAKAFIAACYQELGKEEEVKDRLADIKSEIDLTGSYVHTKEELEHGAKMAWRNSNRCIGRLFWNSLNVIDRRDVRTKEEVRDALFHHIETATNNGKIRPTITIFPPEEKGEKQVEIWNHQLIRYAGYESDGERIGDPASCSLTAACEELGWRGERTDFDLLPLIFRMKGDEQPVWYELPRSLVIEVPITHPDIEAFSDLELKWYGVPIISDMKLEVGGIHYNAAPFNGWYMGTEIGARNLADEKRYDKLKKVASVIGIAADYNTDLWKDQALVELNKAVLHSYKKQGVSIVDHHTAASQFKRFEEQEEEAGRKLTGDWTWLIPPISPAATHIFHRSYDNSIVKPNYFYQDKPYE
notes: nitric oxide synthase bsNos of Bacillus subtilis 168, gene amplified from genomic DNA; The holo-form (with heme b) is called dimeric and the apo-form monomeric; The two were separated by size-exclusion chromatography; also called Nos-His6; holo-bsNos; not shown: His6, N-terminal, kept

B2: Bacillus subtilis ferrochelatase HemH, recombinant Strep-tag II variant (enzyme, UniProt P32396 1-310)
chain: MSRKKMGLLVMAYGTPYKEEDIERYYTHIRRGRKPEPEMLQDLKDRYEAIGGISPLAQITEQQAHNLEQHLNEIQDEITFKAYIGLKHIEPFIEDAVAEMHKDGITEAVSIVLAPHFSTFSVQSYNKRAKEEAEKLGGLTITSVESWYDEPKFVTYWVDRVKETYASMPEDERENAMLIVSAHSLPEKIKEFGDPYPDQLHESAKLIAEGAGVSEYAVGWQSEGNTPDPWLGPDVQDLTRDLFEQKGYQAFVYVPVGFVADHLEVLYDNDYECKVVTDDIGASYYRPEMPNAKPEFIDALATVVLKKLGR
- binding [3]: no binding
